Measured values published in the supplement of paper PMC6078165.
± gives the standard deviation of the averaged measurements. The reference is the same well before dosing, and untreated signal decays as well.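 Fibroblast labels name human fibroblasts: mostly primary ones from tissues such as uterus (C12385, HUF), lung (H6013), bone (Hs27A), adrenal (HADF) and skin (WS1), plus mammary HMF and breast cancer-associated Hs343T. The cancer cells are basal-like or mesenchymal-like triple-negative breast cancer lines. The paper calls a changed response a hit when it shifts by more than 3x the replicate standard deviation. The tissue of the other fibroblasts is not given here.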

Tested on: Hs578T
Assay: relative JC-1 red fluorescence (viability) vs pre-drug, coculture with fibroblast (fraction); higher = more viable cancer cells
Procedure: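 JC-1 labelled TNBC cells cocultured 1:1 (1,500 cells each) with CellTrace Violet stained primary or stromal fibroblasts in 384-well plates in FluoroBrite medium, treated with one of 42 anticancer drugs at 0.1, 1, 10 or 100 uM. JC-1 red fluorescence (mitochondrial integrity in cancer cells only) was read by plate reader every 8 h for 72 h. Values are normalised to each well's pre-drug value. The stock of one drug was tenfold lower, so its dose labels may be too high.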

N#Cc1ccc(C(c2ccc(C#N)cc2)n2cncn2)cc1 [Letrozole]
relative JC-1 red fluorescence
Settings	8 h	16 h	24 h	32 h	40 h	48 h	56 h	64 h	72 h
10 µM	0.8865 ± 0.0066	0.802 ± 0.013	0.755 ± 0.016	0.7158 ± 0.0046	0.6494 ± 0.0022	0.6023 ± 0.0023	0.5769 ± 0.003	0.5349 ± 0.0013	0.526 ± 0.00063
100 µM	0.898 ± 0.021	0.81562 ± 0.00022	0.7688 ± 0.0027	0.737 ± 0.0094	0.689 ± 0.0094	0.649 ± 0.013	0.619 ± 0.013	0.58 ± 0.024	0.564 ± 0.023

relative JC-1 red fluorescence
Settings	8 h	16 h	24 h	32 h	40 h	48 h	56 h	64 h	72 h
10 µM, coculture fibroblast: C12385	0.8176 ± 0.00013	0.7193 ± 0.0059	0.667 ± 0.029	0.576 ± 0.02	0.507 ± 0.0098	0.468 ± 0.013	0.432 ± 0.014	0.417 ± 0.02	0.408 ± 0.025
10 µM, coculture fibroblast: H6013	0.8506 ± 0.0017	0.808 ± 0.0087	0.75095 ± 0.00011	0.708 ± 0.013	0.662 ± 0.019	0.635 ± 0.028	0.613 ± 0.03	0.595 ± 0.043	0.554 ± 0.044
10 µM, coculture fibroblast: H6019	0.7866 ± 0.0013	0.697 ± 0.017	0.651 ± 0.028	0.57 ± 0.034	0.53 ± 0.046	0.499 ± 0.051	0.47 ± 0.048	0.447 ± 0.053	0.426 ± 0.055
10 µM, coculture fibroblast: H6076	0.9072 ± 0.0024	0.849 ± 0.014	0.792 ± 0.03	0.778 ± 0.033	0.735 ± 0.04	0.722 ± 0.05	0.696 ± 0.045	0.69 ± 0.056	0.691 ± 0.06
10 µM, coculture fibroblast: H6231	0.869 ± 0.034	0.794 ± 0.011	0.787 ± 0.033	0.766 ± 0.058	0.712 ± 0.065	0.694 ± 0.074	0.66 ± 0.083	0.641 ± 0.084	0.625 ± 0.094
10 µM, coculture fibroblast: HADF	0.8671 ± 0.0031	0.811 ± 0.006	0.745 ± 0.016	0.697 ± 0.013	0.642 ± 0.027	0.611 ± 0.026	0.577 ± 0.023	0.554 ± 0.033	0.516 ± 0.039
10 µM, coculture fibroblast: HCFa	0.8279 ± 0.0016	0.7367 ± 0.00038	0.661 ± 0.022	0.592 ± 0.023	0.524 ± 0.025	0.491 ± 0.03	0.463 ± 0.038	0.439 ± 0.049	0.407 ± 0.049
10 µM, coculture fibroblast: HCPF	0.914 ± 0.016	0.842 ± 0.013	0.787 ± 0.021	0.753 ± 0.012	0.688 ± 0.011	0.665 ± 0.0058	0.6364 ± 0.0046	0.6008 ± 0.0042	0.566 ± 0.0096
10 µM, coculture fibroblast: HHSteC	0.816 ± 0.027	0.734 ± 0.042	0.667 ± 0.05	0.61 ± 0.071	0.555 ± 0.082	0.516 ± 0.086	0.491 ± 0.086	0.47 ± 0.086	0.447 ± 0.085
10 µM, coculture fibroblast: HMF	0.917 ± 0.044	0.868 ± 0.041	0.7951 ± 0.0017	0.768 ± 0.014	0.703 ± 0.024	0.673 ± 0.028	0.634 ± 0.029	0.603 ± 0.037	0.58 ± 0.044
10 µM, coculture fibroblast: HPFa	0.878 ± 0.034	0.783 ± 0.056	0.718 ± 0.085	0.663 ± 0.099	0.615 ± 0.1	0.576 ± 0.12	0.532 ± 0.12	0.505 ± 0.14	0.461 ± 0.13
10 µM, coculture fibroblast: HUF	0.832 ± 0.011	0.7226 ± 0.0041	0.704 ± 0.03	0.598 ± 0.045	0.532 ± 0.054	0.496 ± 0.062	0.462 ± 0.056	0.455 ± 0.062	0.444 ± 0.065
10 µM, coculture fibroblast: Hs27A	0.9095 ± 0.0073	0.823 ± 0.027	0.759 ± 0.018	0.7042 ± 0.0032	0.6477 ± 0.0048	0.6307 ± 0.0024	0.5871 ± 0.0053	0.564 ± 0.0031	0.5073 ± 0.0028
10 µM, coculture fibroblast: Hs343T	0.908 ± 0.013	0.823 ± 0.027	0.767 ± 0.025	0.749 ± 0.034	0.69 ± 0.028	0.657 ± 0.032	0.614 ± 0.031	0.586 ± 0.038	0.568 ± 0.04
10 µM, coculture fibroblast: WS1	0.822 ± 0.029	0.728 ± 0.018	0.6834 ± 0.0044	0.5875 ± 0.0038	0.517 ± 0.012	0.489 ± 0.019	0.445 ± 0.02	0.428 ± 0.02	0.41 ± 0.027
100 µM, coculture fibroblast: C12385	0.832 ± 0.0022	0.74708 ± 0.00063	0.66771 ± 7.1e-05	0.597 ± 0.011	0.5332 ± 0.0053	0.49857 ± 0.00031	0.464 ± 0.0088	0.435 ± 0.017	0.422 ± 0.015
100 µM, coculture fibroblast: H6013	0.925 ± 0.035	0.901 ± 0.098	0.846 ± 0.13	0.837 ± 0.18	0.805 ± 0.23	0.802 ± 0.28	0.777 ± 0.3	0.769 ± 0.33	0.738 ± 0.34
100 µM, coculture fibroblast: H6019	0.837 ± 0.027	0.782 ± 0.031	0.7484 ± 0.0056	0.672 ± 0.012	0.633 ± 0.031	0.589 ± 0.034	0.543 ± 0.034	0.508 ± 0.032	0.469 ± 0.03
100 µM, coculture fibroblast: H6076	0.9229 ± 0.0032	0.8635 ± 0.0048	0.832 ± 0.0089	0.816 ± 0.0083	0.783 ± 0.016	0.787 ± 0.028	0.771 ± 0.035	0.759 ± 0.038	0.747 ± 0.031
100 µM, coculture fibroblast: H6231	0.918 ± 0.019	0.86 ± 0.02	0.825 ± 0.011	0.798 ± 0.0086	0.753 ± 0.019	0.723 ± 0.04	0.685 ± 0.043	0.653 ± 0.052	0.635 ± 0.046
100 µM, coculture fibroblast: HADF	0.906 ± 0.0095	0.841 ± 0.013	0.796 ± 0.014	0.76 ± 0.022	0.718 ± 0.042	0.697 ± 0.051	0.66 ± 0.051	0.644 ± 0.041	0.602 ± 0.043
100 µM, coculture fibroblast: HCFa	0.894 ± 0.015	0.8425 ± 0.00098	0.785 ± 0.032	0.732 ± 0.041	0.663 ± 0.044	0.641 ± 0.039	0.605 ± 0.026	0.585 ± 0.018	0.551 ± 0.0085
100 µM, coculture fibroblast: HCPF	0.939 ± 0.025	0.8826 ± 0.0058	0.8417 ± 0.0014	0.804 ± 0.017	0.766 ± 0.017	0.746 ± 0.015	0.731 ± 0.03	0.69 ± 0.025	0.667 ± 0.033
100 µM, coculture fibroblast: HHSteC	0.9248 ± 0.0063	0.86 ± 0.0072	0.784 ± 0.017	0.741 ± 0.018	0.674 ± 0.038	0.643 ± 0.042	0.622 ± 0.052	0.596 ± 0.058	0.562 ± 0.065
100 µM, coculture fibroblast: HMF	0.953 ± 0.034	0.884 ± 0.025	0.8197 ± 0.0033	0.777 ± 0.011	0.723 ± 0.014	0.696 ± 0.0046	0.6565 ± 0.0011	0.632 ± 0.0099	0.608 ± 0.012
100 µM, coculture fibroblast: HPFa	0.94206 ± 0.00014	0.855 ± 0.055	0.759 ± 0.032	0.694 ± 0.02	0.63 ± 0.024	0.579 ± 0.02	0.527 ± 0.026	0.495 ± 0.021	0.446 ± 0.024
100 µM, coculture fibroblast: HUF	0.8737 ± 0.0066	0.805 ± 0.025	0.744 ± 0.031	0.649 ± 0.032	0.591 ± 0.039	0.548 ± 0.034	0.507 ± 0.027	0.481 ± 0.022	0.457 ± 0.021
100 µM, coculture fibroblast: Hs27A	0.877 ± 0.0091	0.8089 ± 0.0016	0.742 ± 0.02	0.692 ± 0.01	0.626 ± 0.0068	0.6 ± 0.0071	0.549 ± 0.0055	0.527 ± 0.0083	0.471 ± 0.0051
100 µM, coculture fibroblast: Hs343T	0.977 ± 0.01	0.901 ± 0.031	0.835 ± 0.023	0.808 ± 0.048	0.748 ± 0.051	0.708 ± 0.051	0.658 ± 0.057	0.62 ± 0.058	0.596 ± 0.06
100 µM, coculture fibroblast: WS1	0.8471 ± 0.0061	0.7777 ± 0.0023	0.721 ± 0.0096	0.647 ± 0.0094	0.583 ± 0.007	0.5573 ± 0.0025	0.5261 ± 0.0021	0.503 ± 0.0054	0.481 ± 0.0068
